Data on 1 molecule can be found in patent US20090010927A1.

The assay has as its target recombinant GST-14-3-3β/ζ (bead-bound). As to the kind of experiment: pull-down with bead-bound GST-14-3-3 β/ζ from lysates of MK2 shRNA p53-/- MEFs treated with camptothecin or doxorubicin for eight hours, immunoblot (FIG. 31C).

Results are given in words; binding and its absence hold for the method and conditions named. Binding seen in cells or lysates may run through a third protein.

B1: endogenous Cdc25B in lysates of MK2 depleted (MK2 shRNA) p53-/- MEFs treated with camptothecin or doxorubicin (enzyme, mouse, UniProt P30306 1-576, looked up)
chain: MEVPLQKSAPGSALSPARVLGGIQRPRHLSVFEFESDGFLGSPEPTASSSPVTTLTQTMHNLAGLGSEPPKAQVGSLSFQNRLADLSLSRRTSECSLSSESSESSDAGLCMDSPSPVDPQMAERTFEQAIQAASRVIQNEQFTIKRFRSLPVRLLEHSPVLQSITNSRALDSWRKTEAGYRAAANSPGEDKENDGYIFKMPQELPHSSSAQALAEWVSRRQAFTQRPSSAPDLMCLTTEWKMEVEELSPVAQSSSLTPVERASEEDDGFVDILESDLKDDEKVPAGMENLISAPLVKKLDKEEEQDLIMFSKCQRLFRSPSMPCSVIRPILKRLERPQDRDVPVQSKRRKSVTPLEEQQLEEPKARVFRSKSLCHEIENILDSDHRGLIGDYSKAFLLQTVDGKHQDLKYISPETMVALLTGKFSNIVEKFVIVDCRYPYEYEGGHIKNAVNLPLERDAETFLLQRPIMPCSLDKRIILIFHCEFSSERGPRMCRFIRERDRAANDYPSLYYPEMYILKGGYKEFFPQHPNFCEPQDYRPMNHEAFRDELRNFRLKTRSWAGERSRRELCSRLQDQ
modifications: lacks the MK2 dependent 14-3-3 binding site; state not measured directly
For B1, the binding result is on record as “no binding”.
